Results from the supplement of paper PMC10849652.
The other results are listed elsewhere or left out.

By UniProt entry, the sequences of proteins in these tests, tags left out. Where a name states a change or a piece, a line headed by the entry shows the natural chain unless it says otherwise.
UniProt Q8IZL8: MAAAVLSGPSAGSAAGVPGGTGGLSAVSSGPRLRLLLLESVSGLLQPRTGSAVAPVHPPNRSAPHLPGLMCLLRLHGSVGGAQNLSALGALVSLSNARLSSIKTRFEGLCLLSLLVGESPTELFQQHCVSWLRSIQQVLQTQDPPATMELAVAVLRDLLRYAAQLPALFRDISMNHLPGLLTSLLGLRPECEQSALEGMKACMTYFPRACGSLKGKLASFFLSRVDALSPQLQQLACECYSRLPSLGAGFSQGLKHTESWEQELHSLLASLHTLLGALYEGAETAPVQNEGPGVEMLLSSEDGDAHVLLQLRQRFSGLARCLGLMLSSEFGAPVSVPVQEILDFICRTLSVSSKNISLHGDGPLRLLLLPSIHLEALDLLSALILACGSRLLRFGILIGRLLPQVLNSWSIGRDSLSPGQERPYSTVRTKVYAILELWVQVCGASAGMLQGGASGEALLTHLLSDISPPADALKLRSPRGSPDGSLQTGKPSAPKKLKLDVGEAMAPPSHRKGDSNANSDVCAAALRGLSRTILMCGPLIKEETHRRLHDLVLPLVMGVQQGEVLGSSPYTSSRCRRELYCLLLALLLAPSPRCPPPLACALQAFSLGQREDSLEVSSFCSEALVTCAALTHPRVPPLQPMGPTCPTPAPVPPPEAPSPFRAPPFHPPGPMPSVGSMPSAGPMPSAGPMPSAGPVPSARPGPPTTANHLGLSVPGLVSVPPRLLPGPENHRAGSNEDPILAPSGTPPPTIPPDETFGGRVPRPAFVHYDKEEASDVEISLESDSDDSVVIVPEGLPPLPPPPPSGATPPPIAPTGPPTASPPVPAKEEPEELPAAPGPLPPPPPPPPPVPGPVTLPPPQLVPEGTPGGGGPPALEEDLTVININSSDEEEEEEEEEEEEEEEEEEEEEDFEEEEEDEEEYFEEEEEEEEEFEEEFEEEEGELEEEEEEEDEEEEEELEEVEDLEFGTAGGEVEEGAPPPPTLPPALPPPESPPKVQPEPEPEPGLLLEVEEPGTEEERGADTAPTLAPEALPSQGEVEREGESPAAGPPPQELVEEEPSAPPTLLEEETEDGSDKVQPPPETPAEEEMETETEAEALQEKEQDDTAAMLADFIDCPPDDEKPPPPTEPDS
UniProt P30086: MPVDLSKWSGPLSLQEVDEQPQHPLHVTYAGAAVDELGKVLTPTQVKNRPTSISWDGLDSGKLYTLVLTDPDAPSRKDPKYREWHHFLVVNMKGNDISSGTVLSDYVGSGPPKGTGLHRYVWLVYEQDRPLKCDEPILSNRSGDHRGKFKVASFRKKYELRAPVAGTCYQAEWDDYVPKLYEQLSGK
UniProt P30039: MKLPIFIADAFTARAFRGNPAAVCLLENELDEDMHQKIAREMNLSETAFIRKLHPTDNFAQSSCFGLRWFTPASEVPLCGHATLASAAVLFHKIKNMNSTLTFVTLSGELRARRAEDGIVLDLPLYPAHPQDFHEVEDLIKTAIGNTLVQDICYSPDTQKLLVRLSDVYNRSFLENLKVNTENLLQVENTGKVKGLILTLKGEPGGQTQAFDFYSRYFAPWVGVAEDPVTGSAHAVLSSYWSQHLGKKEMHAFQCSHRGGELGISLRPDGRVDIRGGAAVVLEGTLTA
UniProt Q6P996: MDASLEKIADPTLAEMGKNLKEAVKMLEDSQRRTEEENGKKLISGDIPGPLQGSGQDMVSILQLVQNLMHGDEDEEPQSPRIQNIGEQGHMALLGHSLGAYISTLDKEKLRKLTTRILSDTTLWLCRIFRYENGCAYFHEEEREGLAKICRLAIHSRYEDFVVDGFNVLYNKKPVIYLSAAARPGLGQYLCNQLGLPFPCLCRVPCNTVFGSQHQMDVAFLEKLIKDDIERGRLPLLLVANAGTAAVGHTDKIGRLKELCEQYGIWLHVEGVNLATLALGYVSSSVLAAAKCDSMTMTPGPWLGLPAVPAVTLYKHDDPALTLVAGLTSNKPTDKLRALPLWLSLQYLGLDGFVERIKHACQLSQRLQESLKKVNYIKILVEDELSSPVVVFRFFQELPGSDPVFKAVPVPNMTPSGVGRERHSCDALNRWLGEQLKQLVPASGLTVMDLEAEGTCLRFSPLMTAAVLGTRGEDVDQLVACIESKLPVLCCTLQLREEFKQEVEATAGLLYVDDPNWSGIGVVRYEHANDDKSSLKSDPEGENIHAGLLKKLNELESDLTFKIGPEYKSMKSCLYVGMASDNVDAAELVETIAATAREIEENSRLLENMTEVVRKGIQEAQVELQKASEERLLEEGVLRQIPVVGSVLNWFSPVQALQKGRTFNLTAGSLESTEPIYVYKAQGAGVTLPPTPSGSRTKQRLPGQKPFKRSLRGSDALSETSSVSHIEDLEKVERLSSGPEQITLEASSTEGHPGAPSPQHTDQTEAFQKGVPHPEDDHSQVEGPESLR
UniProt P05166: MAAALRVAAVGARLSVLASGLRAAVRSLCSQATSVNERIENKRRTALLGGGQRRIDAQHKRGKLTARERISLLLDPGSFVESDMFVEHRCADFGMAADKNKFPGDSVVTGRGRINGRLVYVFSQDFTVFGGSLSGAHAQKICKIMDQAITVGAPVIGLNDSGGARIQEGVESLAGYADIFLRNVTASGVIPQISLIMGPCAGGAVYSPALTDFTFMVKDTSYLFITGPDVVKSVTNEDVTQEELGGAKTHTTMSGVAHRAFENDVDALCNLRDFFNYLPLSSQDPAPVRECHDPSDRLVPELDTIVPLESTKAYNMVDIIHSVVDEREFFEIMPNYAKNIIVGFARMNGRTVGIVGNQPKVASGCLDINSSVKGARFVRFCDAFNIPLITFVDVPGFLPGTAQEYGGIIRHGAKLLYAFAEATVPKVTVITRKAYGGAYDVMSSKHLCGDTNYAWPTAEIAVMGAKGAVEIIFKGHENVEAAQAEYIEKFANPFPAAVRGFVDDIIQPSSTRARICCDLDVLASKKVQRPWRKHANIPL
UniProt O60683: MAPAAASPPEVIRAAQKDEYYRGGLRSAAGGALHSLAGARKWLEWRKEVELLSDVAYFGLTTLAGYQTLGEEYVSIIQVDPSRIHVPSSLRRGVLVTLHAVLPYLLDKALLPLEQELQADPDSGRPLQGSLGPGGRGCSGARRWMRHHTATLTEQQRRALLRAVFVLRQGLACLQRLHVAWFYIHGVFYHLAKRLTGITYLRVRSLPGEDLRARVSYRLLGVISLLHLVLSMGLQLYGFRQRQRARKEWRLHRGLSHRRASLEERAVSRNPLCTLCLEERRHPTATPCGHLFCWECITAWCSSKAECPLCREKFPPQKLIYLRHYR
UniProt O00764: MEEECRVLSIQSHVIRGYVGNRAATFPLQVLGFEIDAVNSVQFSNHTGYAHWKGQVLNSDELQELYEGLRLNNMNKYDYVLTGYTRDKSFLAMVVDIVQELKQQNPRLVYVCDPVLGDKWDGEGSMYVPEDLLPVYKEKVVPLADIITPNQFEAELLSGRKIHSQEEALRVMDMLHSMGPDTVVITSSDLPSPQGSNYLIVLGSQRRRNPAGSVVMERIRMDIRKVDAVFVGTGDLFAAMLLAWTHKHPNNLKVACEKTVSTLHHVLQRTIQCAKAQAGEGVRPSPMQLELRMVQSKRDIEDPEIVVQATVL
UniProt Q9BUH6, whole entry, looked up: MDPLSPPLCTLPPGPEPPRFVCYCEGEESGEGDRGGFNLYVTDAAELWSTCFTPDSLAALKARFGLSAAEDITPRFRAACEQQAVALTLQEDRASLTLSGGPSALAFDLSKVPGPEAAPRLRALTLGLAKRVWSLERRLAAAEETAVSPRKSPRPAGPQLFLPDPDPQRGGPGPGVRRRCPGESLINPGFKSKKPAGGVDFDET
UniProt Q8NBP7, whole entry, looked up: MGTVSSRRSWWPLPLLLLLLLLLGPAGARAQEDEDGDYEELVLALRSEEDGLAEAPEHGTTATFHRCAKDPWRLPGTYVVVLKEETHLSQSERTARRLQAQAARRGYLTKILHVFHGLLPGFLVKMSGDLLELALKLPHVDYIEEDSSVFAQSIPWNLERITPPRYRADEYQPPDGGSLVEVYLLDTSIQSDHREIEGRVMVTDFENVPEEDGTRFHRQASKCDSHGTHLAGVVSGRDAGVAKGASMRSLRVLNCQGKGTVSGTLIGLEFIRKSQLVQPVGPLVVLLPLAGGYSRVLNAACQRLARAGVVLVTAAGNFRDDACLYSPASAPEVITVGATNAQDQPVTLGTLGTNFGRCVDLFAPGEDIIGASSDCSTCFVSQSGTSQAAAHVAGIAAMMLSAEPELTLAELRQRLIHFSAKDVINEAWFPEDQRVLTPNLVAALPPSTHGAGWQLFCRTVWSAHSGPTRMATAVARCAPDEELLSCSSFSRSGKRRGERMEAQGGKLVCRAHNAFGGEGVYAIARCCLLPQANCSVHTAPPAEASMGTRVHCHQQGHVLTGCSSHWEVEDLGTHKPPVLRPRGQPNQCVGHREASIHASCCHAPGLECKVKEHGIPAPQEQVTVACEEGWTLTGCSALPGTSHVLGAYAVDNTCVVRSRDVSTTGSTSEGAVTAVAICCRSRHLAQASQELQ
UniProt O00628: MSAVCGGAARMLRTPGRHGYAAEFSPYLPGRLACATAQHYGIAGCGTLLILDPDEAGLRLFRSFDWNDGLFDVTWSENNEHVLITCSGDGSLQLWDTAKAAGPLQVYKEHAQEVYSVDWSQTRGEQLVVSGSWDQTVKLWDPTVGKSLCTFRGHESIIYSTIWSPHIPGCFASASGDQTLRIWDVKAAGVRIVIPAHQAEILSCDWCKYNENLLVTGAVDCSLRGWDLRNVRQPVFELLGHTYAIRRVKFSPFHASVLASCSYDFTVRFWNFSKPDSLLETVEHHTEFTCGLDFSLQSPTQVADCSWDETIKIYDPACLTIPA
UniProt P40855: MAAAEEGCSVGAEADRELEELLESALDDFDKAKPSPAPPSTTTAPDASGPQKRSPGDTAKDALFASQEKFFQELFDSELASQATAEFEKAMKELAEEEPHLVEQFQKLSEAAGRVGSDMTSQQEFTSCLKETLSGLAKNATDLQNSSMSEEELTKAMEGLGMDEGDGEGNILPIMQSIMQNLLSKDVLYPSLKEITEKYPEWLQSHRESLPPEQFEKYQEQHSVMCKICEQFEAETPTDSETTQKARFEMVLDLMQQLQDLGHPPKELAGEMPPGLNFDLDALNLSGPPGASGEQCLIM
UniProt Q8NCN5: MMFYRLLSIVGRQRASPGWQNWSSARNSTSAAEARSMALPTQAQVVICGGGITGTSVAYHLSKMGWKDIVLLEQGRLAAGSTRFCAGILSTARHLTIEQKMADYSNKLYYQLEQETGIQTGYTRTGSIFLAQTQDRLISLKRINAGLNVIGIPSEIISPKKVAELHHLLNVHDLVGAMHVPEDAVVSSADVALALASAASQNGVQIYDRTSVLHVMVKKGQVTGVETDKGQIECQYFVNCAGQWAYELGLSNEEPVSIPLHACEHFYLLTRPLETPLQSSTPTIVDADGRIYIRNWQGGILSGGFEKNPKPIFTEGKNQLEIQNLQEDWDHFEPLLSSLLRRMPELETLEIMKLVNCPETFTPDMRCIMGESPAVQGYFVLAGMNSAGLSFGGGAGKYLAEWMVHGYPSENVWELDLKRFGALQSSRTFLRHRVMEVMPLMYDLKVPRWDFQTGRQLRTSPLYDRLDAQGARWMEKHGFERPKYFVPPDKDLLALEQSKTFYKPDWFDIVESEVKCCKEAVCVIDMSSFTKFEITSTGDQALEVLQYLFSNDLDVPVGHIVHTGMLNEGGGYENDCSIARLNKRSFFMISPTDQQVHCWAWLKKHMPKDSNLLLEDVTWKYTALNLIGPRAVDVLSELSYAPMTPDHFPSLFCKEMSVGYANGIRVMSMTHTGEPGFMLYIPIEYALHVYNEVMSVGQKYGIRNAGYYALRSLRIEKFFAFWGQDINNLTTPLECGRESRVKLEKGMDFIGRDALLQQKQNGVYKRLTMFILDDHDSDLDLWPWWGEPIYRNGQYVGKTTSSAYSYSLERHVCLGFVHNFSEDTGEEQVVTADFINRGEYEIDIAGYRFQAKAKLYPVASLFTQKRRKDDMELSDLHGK
UniProt O00541, whole entry, looked up: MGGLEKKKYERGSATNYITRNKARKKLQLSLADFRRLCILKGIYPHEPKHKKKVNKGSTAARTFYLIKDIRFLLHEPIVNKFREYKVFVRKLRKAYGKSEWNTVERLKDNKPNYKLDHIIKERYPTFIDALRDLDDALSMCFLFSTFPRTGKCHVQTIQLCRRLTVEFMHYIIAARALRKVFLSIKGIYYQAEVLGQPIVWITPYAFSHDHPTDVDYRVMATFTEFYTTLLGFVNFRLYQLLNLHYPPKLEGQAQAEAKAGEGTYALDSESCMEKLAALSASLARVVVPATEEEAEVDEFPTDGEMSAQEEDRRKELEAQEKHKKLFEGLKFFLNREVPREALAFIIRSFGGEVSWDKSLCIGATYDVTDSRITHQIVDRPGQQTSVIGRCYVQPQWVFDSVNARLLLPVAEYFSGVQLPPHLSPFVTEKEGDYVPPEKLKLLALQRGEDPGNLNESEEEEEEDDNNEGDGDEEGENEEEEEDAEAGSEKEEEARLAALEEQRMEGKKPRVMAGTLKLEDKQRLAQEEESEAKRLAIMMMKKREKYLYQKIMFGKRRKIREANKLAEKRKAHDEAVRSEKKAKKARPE

These targets were tested with C1=CC=C(C=C1)[C@H](COC2=CC3=C(C=C2)NC(=O)N3)NC(=O)C4=CC=CN(C4=O)CC5=CC(=C(C=C5)F)F (assay: log2 fold change, soluble protein after heating vs DMSO (PISA); higher = thermal stabilisation; K562 lysate, 10 uM; active = over 0.2 and 3.5 SD of the protein, either way, in both replicates (recomputed)).
How it was run: (§1)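 Thermal stability, expressed as log-two fold change relative to solvent controls, is given from duplicates. Crude K562 extract in PBS pH 7.4 with 1 mM MgCl2, at 1 mg/mL protein, was treated with 10 μM compound for 30 min and heated in aliquots for 3 min across 48°C-58°C. After pooling, adjustment to 0.5% NP-40 at 4°C and centrifugation at 21,000xg for 90 min, supernatant protein was measured by TMTpro 16plex LC-MS/MS with channel sums equalised.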
In the case of PELP1 (UniProt Q8IZL8), the log2 fold change is reported as inactive: -0.009.
For PGD (UniProt K7EPF6), the log2 fold change was inactive: -0.274.
For PCYOX1 (UniProt Q9UHG3), the log2 fold change was inactive: -0.025.
With PEBP1 (UniProt P30086) the log2 fold change was inactive: 0.021.
In the case of PEX2 (UniProt P28328), the log2 fold change is reported as inactive: -0.243.
PARS2 (UniProt Q7L3T8) was tested, and the log2 fold change was inactive: 0.025.
With PBLD (UniProt P30039) the log2 fold change was inactive: -0.013.
With PDE8A (UniProt O60658) the log2 fold change was inactive: -0.099.
PFKFB4 (UniProt Q16877) was tested, and the log2 fold change was inactive: -0.066.
For PARPBP (UniProt Q9NWS1), the log2 fold change was inactive: 0.111.
With PDXDC1 (UniProt Q6P996) the log2 fold change was inactive: 0.025.
In the case of PAXIP1 (UniProt Q6ZW49), the log2 fold change is reported as inactive: -0.003.
For PC (UniProt P11498), the log2 fold change was inactive: 0.014.
For PCCB (UniProt P05166), the log2 fold change was inactive: 0.033.
In the case of PEX10 isoform 2 (UniProt O60683), the log2 fold change is reported as inactive: -0.034.
In the case of PET100 (UniProt P0DJ07), the log2 fold change is reported as inactive: 0.062.
In the case of PDCD2L (UniProt Q9BRP1), the log2 fold change is reported as inactive: 0.015.
In the case of PCIF1 (UniProt Q9H4Z3), the log2 fold change is reported as inactive: -0.015.
PFKFB2 (UniProt O60825) was tested, and the log2 fold change was inactive: 0.016.
In the case of PDXK (UniProt O00764), the log2 fold change is reported as inactive: 0.014.
PCBP2 (UniProt F8W0G4) was tested, and the log2 fold change was inactive: 0.16.
With PCYT1B (UniProt Q9Y5K3) the log2 fold change was inactive: -0.006.
For PAXX (UniProt Q9BUH6), the log2 fold change was inactive: 0.025.
PCLO (UniProt Q9Y6V0) was tested, and the log2 fold change was inactive: -0.033.
PFDN2 (UniProt Q9UHV9) was tested, and the log2 fold change was inactive: 0.044.
For PDS5A (UniProt Q29RF7), the log2 fold change was inactive: -0.049.
PCSK9 (UniProt Q8NBP7) was tested, and the log2 fold change was inactive: -0.071.
With PCGF5 (UniProt Q86SE9) the log2 fold change was inactive: -0.022.
PDE4DIP isoform 4 (UniProt Q5VU43) was tested, and the log2 fold change was inactive: -0.102.
In the case of PEX7 (UniProt O00628), the log2 fold change is reported as inactive: 0.01.
For PEX19 (UniProt P40855), the log2 fold change was inactive: -0.033.
In the case of PDE12 (UniProt Q6L8Q7), the log2 fold change is reported as inactive: -0.018.
With PDPR (UniProt Q8NCN5) the log2 fold change was inactive: 0.044.
In the case of PDIA3 (UniProt P30101), the log2 fold change is reported as inactive: 0.015.
PES1 (UniProt O00541) was tested, and the log2 fold change was inactive: 0.027.
For PCF11 (UniProt O94913), the log2 fold change was inactive: -0.135.
In the case of PEA15 isoform 2 (UniProt Q15121), the log2 fold change is reported as inactive: -0.015.
PDZD11 isoform 2 (UniProt Q5EBL8) was tested, and the log2 fold change was inactive: 0.071.
In the case of PCM1 (UniProt Q15154), the log2 fold change is reported as inactive: 0.019.
In the case of PARP9 (UniProt Q8IXQ6), the log2 fold change is reported as inactive: 0.186.

The targets below were run with CC1=C(SC2=C1C(=N[C@H](C3=NN=C(N32)C)CC(=O)N)C4=CC=C(C=C4)Cl)C in the same assay as above.
How it was run: as §1
PELP1 (UniProt Q8IZL8) was tested, and the log2 fold change was inactive: -0.083.
For PGD (UniProt K7EPF6), the log2 fold change was inactive: -0.028.
In the case of PCYOX1 (UniProt Q9UHG3), the log2 fold change is reported as inactive: 0.003.
For PEBP1 (UniProt P30086), the log2 fold change was inactive: -0.009.
PEX2 (UniProt P28328) was tested, and the log2 fold change was inactive: 0.053.
With PARS2 (UniProt Q7L3T8) the log2 fold change was inactive: -0.012.
PBLD (UniProt P30039) was tested, and the log2 fold change was inactive: 0.031.
PDE8A (UniProt O60658) was tested, and the log2 fold change was inactive: -0.178.
PFKFB4 (UniProt Q16877) was tested, and the log2 fold change was inactive: 0.023.
In the case of PARPBP (UniProt Q9NWS1), the log2 fold change is reported as inactive: 0.001.
With PDXDC1 (UniProt Q6P996) the log2 fold change was inactive: 0.022.
In the case of PAXIP1 (UniProt Q6ZW49), the log2 fold change is reported as inactive: 0.016.
For PC (UniProt P11498), the log2 fold change was inactive: 0.002.
With PCCB (UniProt P05166) the log2 fold change was inactive: -0.01.
In the case of PEX10 isoform 2 (UniProt O60683), the log2 fold change is reported as inactive: -0.377.
PET100 (UniProt P0DJ07) was tested, and the log2 fold change was inactive: 0.031.
PDCD2L (UniProt Q9BRP1) was tested, and the log2 fold change was inactive: 0.016.
PCIF1 (UniProt Q9H4Z3) was tested, and the log2 fold change was inactive: -0.013.
PFKFB2 (UniProt O60825) was tested, and the log2 fold change was inactive: 0.001.
In the case of PDXK (UniProt O00764), the log2 fold change is reported as inactive: -0.039.
In the case of PCBP2 (UniProt F8W0G4), the log2 fold change is reported as inactive: 0.052.
In the case of PCYT1B (UniProt Q9Y5K3), the log2 fold change is reported as inactive: 0.033.
With PAXX (UniProt Q9BUH6) the log2 fold change was inactive: 0.002.
In the case of PCLO (UniProt Q9Y6V0), the log2 fold change is reported as inactive: 0.079.
For PFDN2 (UniProt Q9UHV9), the log2 fold change was inactive: -0.055.
For PDS5A (UniProt Q29RF7), the log2 fold change was inactive: -0.031.
In the case of PCSK9 (UniProt Q8NBP7), the log2 fold change is reported as inactive: 0.015.
In the case of PCGF5 (UniProt Q86SE9), the log2 fold change is reported as inactive: 0.095.
For PDE4DIP isoform 4 (UniProt Q5VU43), the log2 fold change was inactive: 0.154.
PEX7 (UniProt O00628) was tested, and the log2 fold change was inactive: -0.041.
For PEX19 (UniProt P40855), the log2 fold change was inactive: -0.031.
For PDE12 (UniProt Q6L8Q7), the log2 fold change was inactive: 0.025.
In the case of PDPR (UniProt Q8NCN5), the log2 fold change is reported as inactive: -0.025.
In the case of PDIA3 (UniProt P30101), the log2 fold change is reported as inactive: -0.004.
PES1 (UniProt O00541) was tested, and the log2 fold change was inactive: 0.016.
With PCF11 (UniProt O94913) the log2 fold change was inactive: 0.018.
In the case of PEA15 isoform 2 (UniProt Q15121), the log2 fold change is reported as inactive: -0.013.
With PDZD11 isoform 2 (UniProt Q5EBL8) the log2 fold change was inactive: -0.054.
PCM1 (UniProt Q15154) was tested, and the log2 fold change was inactive: -0.002.
With PARP9 (UniProt Q8IXQ6) the log2 fold change was inactive: 0.017.
